# Laboratory results as given in the supplement of paper PMC8728848.
# The list shows a part of the results.
# What was measured:
# Assay in all cases: glycan array binding signal (z-score within array); higher = stronger binding
# Conditions in all cases: glycan notation: IUPAC condensed, linker removed
# [1] = target: Fuc(a1-2)[Gal(a1-3)]Gal(b1-4)GlcNAc(b1-2)Man(a1-3)[Fuc(a1-2)[Gal(a1-3)]Gal(b1-4)GlcNAc(b1-2)Man(a1-6)]Man(b1-4)GlcNAc(b1-4)GlcNAc
# Procedure, shortened: (§1)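 From the Consortium for Functional Glycomics database, 3228 arrays were curated, keeping only those whose protein sequence was available. Binding is given as a within-array Z-score averaged across arrays sharing a protein sequence and across linkers. Negative Z-scores can be read as non-binding.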
# [2] = target: Fuc(a1-2)[Gal(a1-3)]Gal(b1-4)GlcNAc(b1-2)Man(a1-3)[Fuc(a1-2)[Gal(a1-3)]Gal(b1-4)GlcNAc(b1-2)Man(a1-6)]Man(b1-4)GlcNAc(b1-4)[Fuc(a1-6)]GlcNAc
# Procedure, shortened: as §1
# [3] = target: Fuc(a1-2)[Gal(a1-3)]Gal(b1-4)GlcNAc(b1-3)GalNAc
# Procedure, shortened: as §1
# [4] = target: Fuc(a1-2)[Gal(a1-3)]Gal(b1-4)GlcNAc(b1-3)[Fuc(a1-2)[Gal(a1-3)]Gal(b1-4)GlcNAc(b1-6)]GalNAc
# Procedure, shortened: as §1
# [5] = target: Fuc(a1-2)[Gal(a1-3)]Gal(b1-4)GlcNAc(b1-6)GalNAc
# Procedure, shortened: as §1
# [6] = target: Fuc(a1-2)[Gal(a1-3)]Gal(b1-4)[Fuc(a1-3)]Glc
# Procedure, shortened: as §1
# [7] = target: Fuc(a1-2)[Gal(a1-3)]Gal(b1-4)[Fuc(a1-3)]GlcNAc
# Procedure, shortened: as §1
# [8] = target: Fuc(a1-2)[Gal(a1-3)]Gal(b1-4)[Fuc(a1-3)]GlcNAc(b1-3)GalNAc
# Procedure, shortened: as §1
# [9] = target: Fuc(a1-2)[Gal(a1-4)]Gal(b1-4)GlcNAc
# Procedure, shortened: as §1
# [10] = target: Fuc(a1-2)[GalNAc(a1-3)]Gal
# Procedure, shortened: as §1
# [11] = target: Fuc(a1-2)[GalNAc(a1-3)]Gal(b1-3)GalNAc(a1-3)[Fuc(a1-2)]Gal(b1-4)GlcNAc
# Procedure, shortened: as §1
# [12] = target: Fuc(a1-2)[GalNAc(a1-3)]Gal(b1-3)GalNAc(b1-3)Gal(a1-4)Gal(b1-4)Glc
# Procedure, shortened: as §1
# [13] = target: Fuc(a1-2)[GalNAc(a1-3)]Gal(b1-3)GlcNAc
# Procedure, shortened: as §1
# [14] = target: Fuc(a1-2)[GalNAc(a1-3)]Gal(b1-3)GlcNAc(b1-2)Man(a1-3)[Fuc(a1-2)[GalNAc(a1-3)]Gal(b1-3)GlcNAc(b1-2)Man(a1-6)]Man(b1-4)GlcNAc(b1-4)GlcNAc
# Procedure, shortened: as §1
# [15] = target: Fuc(a1-2)[GalNAc(a1-3)]Gal(b1-3)GlcNAc(b1-2)Man(a1-3)[Fuc(a1-2)[GalNAc(a1-3)]Gal(b1-3)GlcNAc(b1-2)Man(a1-6)]Man(b1-4)GlcNAc(b1-4)[Fuc(a1-6)]GlcNAc
# Procedure, shortened: as §1
# [16] = target: Fuc(a1-2)[GalNAc(a1-3)]Gal(b1-3)GlcNAc(b1-3)GalNAc
# Procedure, shortened: as §1
# [17] = target: Fuc(a1-2)[GalNAc(a1-3)]Gal(b1-3)GlcNAc(b1-6)GalNAc
# Procedure, shortened: as §1
# [18] = target: Fuc(a1-2)[GalNAc(a1-3)]Gal(b1-4)Glc
# Procedure, shortened: as §1
# [19] = target: Fuc(a1-2)[GalNAc(a1-3)]Gal(b1-4)GlcNAc
# Procedure, shortened: as §1
# [20] = target: Fuc(a1-2)[GalNAc(a1-3)]Gal(b1-4)GlcNAc(b1-2)Man
# Procedure, shortened: as §1
# [21] = target: Fuc(a1-2)[GalNAc(a1-3)]Gal(b1-4)GlcNAc(b1-2)Man(a1-3)[Fuc(a1-2)[GalNAc(a1-3)]Gal(b1-4)GlcNAc(b1-2)Man(a1-6)]Man(b1-4)GlcNAc(b1-4)GlcNAc
# Procedure, shortened: as §1
# [22] = target: Fuc(a1-2)[GalNAc(a1-3)]Gal(b1-4)GlcNAc(b1-2)Man(a1-3)[Fuc(a1-2)[GalNAc(a1-3)]Gal(b1-4)GlcNAc(b1-2)Man(a1-6)]Man(b1-4)GlcNAc(b1-4)[Fuc(a1-6)]GlcNAc
# Procedure, shortened: as §1
# [23] = target: Fuc(a1-2)[GalNAc(a1-3)]Gal(b1-4)GlcNAc(b1-3)Gal(b1-4)GlcNAc
# Procedure, shortened: as §1
# [24] = target: Fuc(a1-2)[GalNAc(a1-3)]Gal(b1-4)GlcNAc(b1-3)Gal(b1-4)GlcNAc(b1-3)Gal(b1-4)GlcNAc
# Procedure, shortened: as §1
# [25] = target: Fuc(a1-2)[GalNAc(a1-3)]Gal(b1-4)GlcNAc(b1-3)GalNAc
# Procedure, shortened: as §1
# [26] = target: Fuc(a1-2)[GalNAc(a1-3)]Gal(b1-4)GlcNAc(b1-3)[Fuc(a1-2)[GalNAc(a1-3)]Gal(b1-4)GlcNAc(b1-6)]GalNAc
# Procedure, shortened: as §1
# [27] = target: Fuc(a1-2)[GalNAc(a1-3)]Gal(b1-4)GlcNAc(b1-6)GalNAc
# Procedure, shortened: as §1
# [28] = target: Fuc(a1-2)[GalNAc(a1-3)]Gal(b1-4)[Fuc(a1-3)]GlcNAc
# Procedure, shortened: as §1
# [29] = target: Fuc(a1-2)[GalNAc(a1-3)]Gal(b1-4)[Fuc(a1-3)]GlcNAc(b1-3)GalNAc
# Procedure, shortened: as §1
# [30] = target: Fuc(a1-2)[GalNAc(a1-4)]Gal(b1-4)GlcNAc
# Procedure, shortened: as §1
# [31] = target: Fuc(a1-2)[GalNAc(b1-3)]Gal
# Procedure, shortened: as §1
# [32] = target: Fuc(a1-3)GlcNAc
# Procedure, shortened: as §1
# [33] = target: Fuc(a1-3)[Gal(b1-4)]Glc6S
# Procedure, shortened: as §1
# [34] = target: Fuc(a1-3)[Gal(b1-4)]GlcNAc
# Procedure, shortened: as §1
# [35] = target: Fuc(a1-3)[Gal(b1-4)]GlcNAc(b1-2)Man
# Procedure, shortened: as §1
# [36] = target: Fuc(a1-3)[Gal(b1-4)]GlcNAc(b1-2)Man(a1-3)[Fuc(a1-3)[Gal(b1-4)]GlcNAc(b1-2)Man(a1-6)]Man(b1-4)GlcNAc(b1-4)GlcNAc
# Procedure, shortened: as §1
# [37] = target: Fuc(a1-3)[Gal(b1-4)]GlcNAc(b1-2)Man(a1-3)[Fuc(a1-3)[Gal(b1-4)]GlcNAc(b1-2)Man(a1-6)]Man(b1-4)GlcNAc(b1-4)[Fuc(a1-6)]GlcNAc
# Procedure, shortened: as §1
# [38] = target: Fuc(a1-3)[Gal(b1-4)]GlcNAc(b1-3)Gal(b1-3)[Fuc(a1-4)]GlcNAc
# Procedure, shortened: as §1
# [39] = target: Fuc(a1-3)[Gal(b1-4)]GlcNAc(b1-3)Gal(b1-4)[Fuc(a1-3)]GlcNAc
# Procedure, shortened: as §1
# [40] = target: Fuc(a1-3)[Gal(b1-4)]GlcNAc(b1-3)Gal(b1-4)[Fuc(a1-3)]GlcNAc(b1-3)Gal(b1-4)[Fuc(a1-3)]GlcNAc
# Procedure, shortened: as §1
# [41] = target: Fuc(a1-3)[Gal(b1-4)]GlcNAc(b1-3)GalNAc
# Procedure, shortened: as §1
# [42] = target: Fuc(a1-3)[Gal(b1-4)]GlcNAc(b1-6)GalNAc
# Procedure, shortened: as §1
# [43] = target: Fuc(a1-3)[Gal(b1-4)]GlcNAc(b1-6)[Gal(b1-3)GlcNAc(b1-3)]Gal(b1-4)Glc
# Procedure, shortened: as §1
# [44] = target: Fuc(a1-3)[Gal(b1-4)]GlcNAc6S
# Procedure, shortened: as §1
# [45] = target: Fuc(a1-3)[Gal3S(b1-4)]Glc
# Procedure, shortened: as §1
binder,measurement,setting,value
"CD34 (Homo sapiens), P28906 (protein) MGSSHHHHHHSSGLVPRGSHMSTSLATSPTKPYTSSSPILSDIKAEIKCSGIREVKLTQGICLEQNKTSSCAEFKKDRGEGLARVLCGEEQADADAGAQVCSLLLAQSEVRPQCLLLVLANRTEISSKLQLMKKHQSDLKKLGILDFTEQDVASHQSYSQKT",glycan array binding signal (z-score),[1],-0.462
same,glycan array binding signal (z-score),[2],-0.5
same,glycan array binding signal (z-score),[3],0.323
same,glycan array binding signal (z-score),[4],0.293
same,glycan array binding signal (z-score),[5],0.6
same,glycan array binding signal (z-score),[6],-0.694
same,glycan array binding signal (z-score),[7],0.796
same,glycan array binding signal (z-score),[8],-0.271
same,glycan array binding signal (z-score),[9],-0.087
same,glycan array binding signal (z-score),[10],0.266
same,glycan array binding signal (z-score),[11],-1.21
same,glycan array binding signal (z-score),[12],-0.382
same,glycan array binding signal (z-score),[13],0.939
same,glycan array binding signal (z-score),[14],-0.362
same,glycan array binding signal (z-score),[15],0.64
same,glycan array binding signal (z-score),[16],1.77
same,glycan array binding signal (z-score),[17],0.239
same,glycan array binding signal (z-score),[18],-0.052
same,glycan array binding signal (z-score),[19],-0.291
same,glycan array binding signal (z-score),[20],-0.118
same,glycan array binding signal (z-score),[21],0.429
same,glycan array binding signal (z-score),[22],0.295
same,glycan array binding signal (z-score),[23],-0.515
same,glycan array binding signal (z-score),[24],0.16
same,glycan array binding signal (z-score),[25],-0.285
same,glycan array binding signal (z-score),[26],-0.163
same,glycan array binding signal (z-score),[27],-1.19
same,glycan array binding signal (z-score),[28],-0.573
same,glycan array binding signal (z-score),[29],-0.048
same,glycan array binding signal (z-score),[30],-0.585
same,glycan array binding signal (z-score),[31],-0.335
same,glycan array binding signal (z-score),[32],-0.344
same,glycan array binding signal (z-score),[33],0.596
same,glycan array binding signal (z-score),[34],-0.304
same,glycan array binding signal (z-score),[35],-0.466
same,glycan array binding signal (z-score),[36],-0.434
same,glycan array binding signal (z-score),[37],0.286
same,glycan array binding signal (z-score),[38],-0.493
same,glycan array binding signal (z-score),[39],-0.418
same,glycan array binding signal (z-score),[40],-0.735
same,glycan array binding signal (z-score),[41],0.226
same,glycan array binding signal (z-score),[42],-0.245
same,glycan array binding signal (z-score),[43],-0.474
same,glycan array binding signal (z-score),[44],0.038
same,glycan array binding signal (z-score),[45],-0.194

# Reprinted at random: two entries already listed.
binder,measurement,setting,value
"CD34 (Homo sapiens), P28906 (protein) MGSSHHHHHHSSGLVPRGSHMSTSLATSPTKPYTSSSPILSDIKAEIKCSGIREVKLTQGICLEQNKTSSCAEFKKDRGEGLARVLCGEEQADADAGAQVCSLLLAQSEVRPQCLLLVLANRTEISSKLQLMKKHQSDLKKLGILDFTEQDVASHQSYSQKT",glycan array binding signal (z-score),[35],-0.466
same,glycan array binding signal (z-score),[24],0.16
